The target of this test is glycogen synthase kinase 3β (human (endogenous in 293T)) (UniProt P49841). Kind of test: co-IP; endogenous proteins of 293T cells; precipitated with a GSK3β antibody, PKG2 detected by western blot; cells treated with Wnt3a alone or with other test agents before lysis; standard protocols.

Sequences of proteins named here, by UniProt entry; tags and fusion partners are left off.
UniProt P49841: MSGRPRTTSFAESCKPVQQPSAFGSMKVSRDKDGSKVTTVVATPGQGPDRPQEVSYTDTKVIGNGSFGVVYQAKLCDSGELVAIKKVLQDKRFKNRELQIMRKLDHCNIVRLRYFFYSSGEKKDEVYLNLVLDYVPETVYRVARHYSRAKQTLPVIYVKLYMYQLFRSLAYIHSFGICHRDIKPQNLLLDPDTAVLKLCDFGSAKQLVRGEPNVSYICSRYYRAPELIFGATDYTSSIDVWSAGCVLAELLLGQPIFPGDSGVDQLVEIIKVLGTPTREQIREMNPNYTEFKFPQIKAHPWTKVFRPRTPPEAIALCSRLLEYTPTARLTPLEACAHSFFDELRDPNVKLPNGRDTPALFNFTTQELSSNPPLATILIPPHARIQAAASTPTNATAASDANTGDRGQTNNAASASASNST

No constants are given. Whether binding was seen depends on the method and setting. Binding seen in cells or lysates may run through a third protein. Some entries that bind do so weakly or less than the wild type.

The results in this text go back to article PMC4260761.

B1: cGMP-dependent protein kinase 2 (protein, UniProt Q13237 1-762)
chain: MGNGSVKPKHSKHPDGHSGNLTTDALRNKVTELERELRRKDAEIQEREYHLKELREQLSKQTVAIAELTEELQNKCIQLNKLQDVVHMQGGSPLQASPDKVPLEVHRKTSGLVSLHSRRGAKAGVSAEPTTRTYDLNKPPEFSFEKARVRKDSSEKKLITDALNKNQFLKRLDPQQIKDMVECMYGRNYQQGSYIIKQGEPGNHIFVLAEGRLEVFQGEKLLSSIPMWTTFGELAILYNCTRTASVKAITNVKTWALDREVFQNIMRRTAQARDEQYRNFLRSVSLLKNLPEDKLTKIIDCLEVEYYDKGDYIIREGEEGSTFFILAKGKVKVTQSTEGHDQPQLIKTLQKGEYFGEKALISDDVRSANIIAEENDVACLVIDRETFNQTVGTFEELQKYLEGYVANLNRDDEKRHAKRSMSNWKLSKALSLEMIQLKEKVARFSSSSPFQNLEIIATLGVGGFGRVELVKVKNENVAFAMKCIRKKHIVDTKQQEHVYSEKRILEELCSPFIVKLYRTFKDNKYVYMLLEACLGGELWSILRDRGSFDEPTSKFCVACVTEAFDYLHRLGIIYRDLKPENLILDAEGYLKLVDFGFAKKIGSGQKTWTFCGTPEYVAPEVILNKGHDFSVDFWSLGILVYELLTGNPPFSGVDQMMTYNLILKGIEKMDFPRKITRRPEDLIRRLCRQNPTERLGNLKNGINDIKKHRWLNGFNWEGLKARSLPSPLQRELKGPIDHSYFDKYPPEKGMPPDELSGWDKDF
Regarding B1, the binding result was “binds”.
